Measured values as given in article PMC9564178 (Cells, 2022).
These are yes or no findings as the source states them, for the method shown. Binding can be weak; no strength is given. Where a sequence is shown, tags or fusion partners need not be part of it.

Molecular target: T1, human recombinant TPPP3 (hexaHis fusion) (human) (UniProt Q9BW30)
T1 sequence: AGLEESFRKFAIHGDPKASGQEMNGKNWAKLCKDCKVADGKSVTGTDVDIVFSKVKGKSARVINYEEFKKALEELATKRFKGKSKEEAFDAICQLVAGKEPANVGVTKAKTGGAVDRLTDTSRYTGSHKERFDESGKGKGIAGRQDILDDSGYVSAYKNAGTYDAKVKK
Assay: ELISA; TPPP3 or TPPP1 immobilised on the plate (5 μg/mL, PBS), tubulin added at various concentrations, bound tubulin detected by a specific antibody; both purified

binding: binds
Substance: Tubulin (bovine) (complex)
